Measured values published in patent US6905677B1, “Combined hepatitis B treatment” (Stichting Leveronderzoek, priority 1999, dated 2005).
At least one compound was matched to its structure with a doubt left.

System: hepatitis B virus
Test: combined treatment with nucleoside analogue and interferon-α for at least 26 weeks in patients infected with HBV
Type: in vivo, human

Nc1ccn([C@@H]2CS[C@H](CO)O2)c(=O)n1 [lamivudine]
response depending on the nucleoside analogue chosen in the combined treatment: Particularly good responses
